{"source": "patent US20090227606A1", "about": "“Methods for Preventing or Treating Acute and Chronic Pain” (priority 2006, published 2009)", "origin": "cited, not measured here", "tested_on": "GLT-1", "settings": "db-cAMP-treated astrocytes; Zelenaia et al. 2000; cited from earlier work", "note": "At least one compound was matched to its structure with a doubt left.", "data": [{"molecule": "O=c1cc(N2CCOCC2)oc2c(-c3ccccc3)cccc12", "note": "[LY294002]", "values": [{"measurement": "effect on db-cAMP-dependent GLT-1 expression", "value": "blocks induction of GLT-1 protein"}]}]}
